In publication PMC4941734, “Structural and dynamics studies of a truncated variant of CI repressor from bacteriophage TP901-1” (Scientific Reports, 2016):
For at least one entry, the source does not settle the construct or the ends of the probe. Tags and fusion partners may be left off the protein sequences shown.

Biological target: T1, CI∆58 (CI repressor, C-terminally truncated) (bacteriophage TP901-1 (host Lactococcus lactis)) (UniProt O48503)
T1 sequence (looked up): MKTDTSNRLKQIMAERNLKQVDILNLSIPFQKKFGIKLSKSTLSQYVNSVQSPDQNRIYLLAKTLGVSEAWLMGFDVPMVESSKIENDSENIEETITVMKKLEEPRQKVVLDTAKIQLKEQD
Assay: NMR (1H-15N HSQC titration)
Details: 300 mM NaCl, 298 K, only NTD resonances shift, NMR: 300 mM NaCl, recombinant protein, residues 1-122, protein details: C-terminal RSHHHHHH

GTTCATGAAACGTGAACT (double strand) [OL operator 18 bp]
binding result: binds
